Here are results for two substances from article doi:10.1101/2024.07.29.605622.

The chains behind the UniProt entries cited, without tags or fusion partners.
UniProt Q93009: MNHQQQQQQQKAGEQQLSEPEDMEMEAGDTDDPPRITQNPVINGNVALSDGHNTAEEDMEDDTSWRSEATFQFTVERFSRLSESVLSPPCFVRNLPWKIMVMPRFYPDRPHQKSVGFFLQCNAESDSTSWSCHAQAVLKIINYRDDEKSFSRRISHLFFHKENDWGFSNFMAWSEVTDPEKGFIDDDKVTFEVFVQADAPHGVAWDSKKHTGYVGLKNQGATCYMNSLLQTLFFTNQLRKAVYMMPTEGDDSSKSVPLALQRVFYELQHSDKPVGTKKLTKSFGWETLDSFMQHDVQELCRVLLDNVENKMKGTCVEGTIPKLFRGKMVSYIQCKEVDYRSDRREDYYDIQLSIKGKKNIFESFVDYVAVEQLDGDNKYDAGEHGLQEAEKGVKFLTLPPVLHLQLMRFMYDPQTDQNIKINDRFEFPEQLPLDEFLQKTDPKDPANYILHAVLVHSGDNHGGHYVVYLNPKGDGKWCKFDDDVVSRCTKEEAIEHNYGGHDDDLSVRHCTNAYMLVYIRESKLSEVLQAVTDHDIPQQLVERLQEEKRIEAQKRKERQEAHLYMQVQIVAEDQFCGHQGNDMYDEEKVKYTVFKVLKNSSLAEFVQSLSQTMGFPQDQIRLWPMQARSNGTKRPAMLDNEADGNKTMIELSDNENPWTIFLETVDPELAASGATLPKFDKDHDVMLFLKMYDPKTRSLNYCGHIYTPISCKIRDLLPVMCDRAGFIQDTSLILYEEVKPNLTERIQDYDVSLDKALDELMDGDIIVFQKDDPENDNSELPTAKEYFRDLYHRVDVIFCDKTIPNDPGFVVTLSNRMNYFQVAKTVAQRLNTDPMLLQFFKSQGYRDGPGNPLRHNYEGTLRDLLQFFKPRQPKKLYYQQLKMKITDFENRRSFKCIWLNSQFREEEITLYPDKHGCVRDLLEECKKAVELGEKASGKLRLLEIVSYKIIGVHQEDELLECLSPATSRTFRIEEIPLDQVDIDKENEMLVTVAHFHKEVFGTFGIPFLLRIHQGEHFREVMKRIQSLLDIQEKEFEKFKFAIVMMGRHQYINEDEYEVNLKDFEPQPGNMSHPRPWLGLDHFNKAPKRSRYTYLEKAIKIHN
UniProt P51784: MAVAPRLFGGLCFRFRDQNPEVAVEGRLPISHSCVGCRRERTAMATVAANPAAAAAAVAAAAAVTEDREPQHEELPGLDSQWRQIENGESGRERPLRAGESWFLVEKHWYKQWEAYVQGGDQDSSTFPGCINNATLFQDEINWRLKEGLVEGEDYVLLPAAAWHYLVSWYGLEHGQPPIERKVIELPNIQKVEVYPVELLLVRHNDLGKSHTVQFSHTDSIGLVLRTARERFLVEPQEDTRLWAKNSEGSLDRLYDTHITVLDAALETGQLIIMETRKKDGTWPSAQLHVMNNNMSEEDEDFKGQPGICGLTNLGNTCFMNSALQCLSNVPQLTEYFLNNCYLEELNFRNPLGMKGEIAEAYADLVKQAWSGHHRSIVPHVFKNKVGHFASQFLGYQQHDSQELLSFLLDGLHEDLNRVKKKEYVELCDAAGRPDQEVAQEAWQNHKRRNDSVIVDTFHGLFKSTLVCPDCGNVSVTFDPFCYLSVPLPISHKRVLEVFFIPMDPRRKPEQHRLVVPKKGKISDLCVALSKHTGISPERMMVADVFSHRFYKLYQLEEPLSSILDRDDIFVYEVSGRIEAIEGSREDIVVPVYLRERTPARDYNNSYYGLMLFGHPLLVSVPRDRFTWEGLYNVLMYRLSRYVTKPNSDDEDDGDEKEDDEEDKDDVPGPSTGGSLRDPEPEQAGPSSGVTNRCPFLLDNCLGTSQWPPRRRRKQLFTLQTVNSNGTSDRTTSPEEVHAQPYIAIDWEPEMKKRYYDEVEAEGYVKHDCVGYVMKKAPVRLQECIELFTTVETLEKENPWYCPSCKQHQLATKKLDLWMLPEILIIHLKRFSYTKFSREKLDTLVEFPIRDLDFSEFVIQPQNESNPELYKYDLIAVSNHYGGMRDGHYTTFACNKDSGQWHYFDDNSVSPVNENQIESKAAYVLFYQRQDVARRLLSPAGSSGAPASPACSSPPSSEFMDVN

Like-named read-outs stand apart in the source and are kept apart here. Results are given in words; binding and its absence hold for the method and conditions named. In cells and extracts the contact can be indirect. Some entries that bind do so weakly or less than the wild type.

Experiment in all cases: co-IP
Assay [1] concerns the target USP7 (endogenous) (human (endogenous in SH-EP)) (UniProt Q93009).
Assay [2] has as its target USP11 (endogenous) (human (endogenous in SH-EP)) (UniProt P51784).
Assay [3] has the same target. This is another data set of the same source.

For “USP11 (endogenous) (from UniProt P51784 1-963) (enzyme)”, the binding entry in assay [1] was “binds”.

“USP7 (endogenous) (from UniProt Q93009 1-1102) (enzyme)”: the binding result in assay [2] and in assay [3] was “binds” in each case.
